Data published in US6552192B1, “Substituted nitrogen heterocyclic derivatives and pharmaceutical use thereof” (Ustau Experimentalni Botaniky AV-CR, priority 1999, dated 2003).

Assays:
[1] = test system: normal human lymphocytes, spontaneous proliferation; experiment: Spontaneous proliferation of lymphocytes, 3H-thymidine incorporation; format: cell-based; conditions: Lymphocyte, 72 h, read-out: spontaneous IC50
Method: (§1) Human heparinized peripheral blood was obtained from healthy volunteers by cubital vein punction.
(§2) The cells were diluted at target density of 1.100.000 cells/ml were added by pipet (180 μl) into 96/well microtiter plates. Four-fold dilutions of the intended test concentration were added at time zero in 20 μl aliquots to the microtiter plate wells. Usually, test compound was evaluated at six 4-fold dilutions. […] Incubations of cells with test compounds lasted for 72 hours at 37° C., in 5% CO2 atmosphere and 100% humidity. At the end of incubation period, the cells were assayed by using the [^3H]-TdR:
(§3) Cell cultures were incubated with […] (20 μl of stock solution 500 μCi/ml) per well for 6 hours at 37° C. and 5% CO2. The automated cell harvester was used to lyse cells in water and adsorb the DNA onto glass-fiber filters in the format of microtiter plate. The DNA incorporated [^3H]-TdR was retained on the filter while unincorporated material passes through. The filters were dried at room temperature overnight, sealed into a sample bag with 10-12 ml of scintillant. The amount of [^3]H-TdR present in each filter (in CCPM) was determined by scintillation counting in a Betaplate liquid scintillation counter. The effective dose of immunosuppressant (ED) was calculated using the following equotation: ED=(CCPMdrug exposed well/mean CCPMcontrol wells)×100%.

B16 melanoma = experiment: In vitro cytotoxicity, MTT assay, B16; format: cell-based; conditions: Mus musculus, B16, 72 h, read-out: B16 IC50
Description: (§4) One of the parameters used, as the basis for colorimetric assays, is the metabolic activity of viable cells. For example, a microtiter assay, which uses the tetrazolium salt MTT, is now widely used to quantitate cell proliferation and cytotoxicity. For instance, this assay is used in drug screening programs and in chemosensitivity testing. Because only metabolically active cells cleave tetrazolium salts, these assays detect viable cells exclusively. In the case of MTT assay, yellow soluble tetrazolium salt is reduced to coloured water-insoluble formazan salt. After it is solubilized, the formazan formed can easily and rapidly be quantified in a conventional ELISA plate reader at 570 nm (maximum absorbance). The quantity of reduced formazan corresponds to number of vital cells in the culture. […]
(§5) The cell suspensions that were prepared and diluted according to the particular cell type and the expected target cell density (2.500-30.000 cells per well based on cell growth characteristics) were added by pipette (80 μl) into 96/well microtiter plates. […] Usually, test compound was evaluated at six 4-fold dilutions. […] The optical density (OD) was measured at 540 nm with the Labsystem iEMS Reader MF (UK). The tumour cell survival (TCS) was calculated using the following equitation: TCS=(ODdrug exposed well/mean ODcontrol wells)×100%. […]

[2] = test system: normal human lymphocytes, mitogen activated proliferation; experiment: Mitogen (concanavalin A) activated proliferation of lymphocytes, 3H-thymidine incorporation; format: cell-based; conditions: Lymphocyte, 72 h, read-out: mitogen activated IC50
Method: as §1, §2, §3

IκB-α = IκB-α kinase inhibition, in vitro kinase assay; format: biochemical
[3] = test system: T-lymphoblastic leukemia cell line CEM; experiment: In vitro cytotoxicity, MTT assay, CEM; format: cell-based; conditions: Homo sapiens, 72 h, read-out: CEM IC50
Description: as §4, §5

CC[C@H](CO)Nc1nc(NCc2ccccc2)c2ncn(C(C)C)c2n1 [ROSCOVITINE, reference compound]
IC50 [1]: 164 µM
IC50 (B16 melanoma): 4.4 µM
IC50 [2]: 6.4 µM
IC50 (IκB-α): 1.4 µM
IC50 [3]: 3.45 µM
